Publication PMC10163288
The other results are listed elsewhere or left out.

B1: il2ra_site1_2b5i_normal_mot_22370d59370c406a0c205a431f537cfa_0001_af2_000000141_0001_1_31_H_._HHH_b2_04268_af2_0001_0000600026_0000001_0_af2pred_dldesign_0_af2p … (protein)
chain: SSSSSKEDEKEVSDVIFELVEELGLSDDQYATLSRLAVELLYKGVSVEEIKKRLRELALKLSSSS
B2: il2ra_site1_3nfp_normal_mot_HHH_b1_03125_af2_000000134_0001_40_57_H_._3e5e4a15067cbc373d7c33478bca156f_0001_af2_0001_0000600046_0000001_0 (protein)
chain: NSERFLEDLERSGDPLLEQIAEVLKEAKERGDFEVVQEIFKLIRKLLKGELPPEEVLRLVEELLK
B3: il2ra_site1_1z92_sap_16_mot_HHH_b2_00827_000000099_0001_20_37_H_._HHH_b1_07533_0001_0000500048_0000001_0_0001 (protein)
chain: SVEEELRELIRELGNPELEELAELIIRHLEANPDDKALRFALEQLLRKLKRDPEAAEKIARRLAH
B4: il2ra_site1_2b5i_normal_mot_HHH_b2_04910_000000118_0001_1_19_H_._HHH_b1_06862_af2_0001_0000200038_0000001_0_af2pred_dldesign_0_af2pred (protein)
chain: SSSSNKAEEVRRLFLEADKLFQAGKEEEAKKKLEEALKKAEELGLNLMKKLIELALKQLESSSSS
B5: il2ra_site1_2b5i_normal_mot_0921d739bb7547bb6fa23329820ad62a_0001_000000012_0001_54_65_H_._HHH_b1_08235_af2_0001_0000500032_0000001_0_af2pred_dldesign_0_af2pred (protein)
chain: SSSSSLEQFKRLEEIYKELLELGDDEAAEEVERLYEEFLKTKDPSLLKRAEELLRKAREKSSSSS
B6: il2ra_site1_2b5i_normal_mot_f5ff40796168375b462bec8614a1db4a_0001_1_000000138_0001_53_65_H_._HHH_b2_01775_0001_0000500027_0000001_0_af2pred_dldesign_0_af2pred (protein)
chain: SSSSSSEKRELIQALIDEAKKEEDKRLAKRLLLLALRLARKHNDEELIAEIEALLKELESSSSSS
B7: il2ra_site2_3nfp_normal_mot_ems_3hM_1278_af2_000000151_0001_43_60_H_._HHH_b1_04271_0001_0000300023_0000001_0 (protein)
chain: SSSSDEERVEELIEEAEELLKKGNPEEAKKVLEEASQLAYRARDSELFMLLAELLLLIAQSSSSS
B8: il2ra_site1_2b5i_normal_mot_HHH_b1_01495_af2_000000272_0001_42_56_H_._HHH_b2_02303_af2_0001_0000300027_0000001_0_af2pred_dldesign_0_af2pred (protein)
chain: SSSSSPEYDKVYDLFNKALEAKRAGKKEEAKRLLEEALELAKKIGDKVAVEDLEYLLSKLSSSSS
B9: il2ra_site2_3nfp_normal_mot_HHH_b2_07840_000000026_0001_18_34_H_._HHH_b1_01318_0001_0000300019_0000001_1_af2pred_0001_1_af2pred_swapped (protein)
chain: SSSSSSEEVKELLRRAEELLERGDPHRAFAVLVLAFELADEEGDEELKREIRRVSLEVADSSSSS
B10: il2ra_site1_1z92_sap_15_mot_HHH_b1_08449_000000162_0001_23_39_H_._HHH_b2_04319_af2_0001_0000100006_0000001_0_0001_af2pred_0001_af2pred_1 (protein)
chain: SSSSDERLRRIQHLFEKALRVEDEEEVEELFREAEELAEELGSEELERLLRRALKLRKESHSSSS

Target: il2ra, P01589
Experiment: yeast display titration

| Binder | apparent Kd |
| --- | --- |
| B1 | inactive: no binding seen |
| B2 | inactive: no binding seen |
| B3 | inactive: no binding seen |
| B4 | inactive: no binding seen |
| B5 | inactive: no binding seen |
| B6 | inactive: no binding seen |
| B7 | inactive: no binding seen |
| B8 | inactive: no binding seen |
| B9 | inactive: no binding seen |
| B10 | inactive: no binding seen |
